The other results are listed elsewhere or left out.
These targets were tested with CN1CCN(CCOc2cc(OC3CCOCC3)c3c(Nc4c(Cl)ccc5c4OCO5)ncnc3c2)CC1 [saracatinib] (assay: log2 fold change, soluble protein after heating vs DMSO (PISA); higher = thermal stabilisation; K562 cells, 10 uM, 30 min; active = over 0.2 and 3.5 SD of the protein, either way, in both replicates (recomputed)).
Summary of the method: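 K562 cells (2×10^6 cells/mL) were treated with 10 μM compound for 30 min, and aliquots were heated for 3 min over 48°C-58°C. Pooled aliquots were extracted in PBS with 0.5% NP-40 at 4°C, and the supernatant after 21,000xg for 90 min was measured by TMTpro 16plex LC-MS/MS with channel sums equalised. Reported thermal stability, relative to control samples and from duplicates, is a log2 fold change.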

Sequences of proteins named here, by UniProt entry; tags and fusion partners are left off. A change or cut given only in a name is not applied to a line headed by its entry.
UniProt Q9UMX0, whole entry, looked up: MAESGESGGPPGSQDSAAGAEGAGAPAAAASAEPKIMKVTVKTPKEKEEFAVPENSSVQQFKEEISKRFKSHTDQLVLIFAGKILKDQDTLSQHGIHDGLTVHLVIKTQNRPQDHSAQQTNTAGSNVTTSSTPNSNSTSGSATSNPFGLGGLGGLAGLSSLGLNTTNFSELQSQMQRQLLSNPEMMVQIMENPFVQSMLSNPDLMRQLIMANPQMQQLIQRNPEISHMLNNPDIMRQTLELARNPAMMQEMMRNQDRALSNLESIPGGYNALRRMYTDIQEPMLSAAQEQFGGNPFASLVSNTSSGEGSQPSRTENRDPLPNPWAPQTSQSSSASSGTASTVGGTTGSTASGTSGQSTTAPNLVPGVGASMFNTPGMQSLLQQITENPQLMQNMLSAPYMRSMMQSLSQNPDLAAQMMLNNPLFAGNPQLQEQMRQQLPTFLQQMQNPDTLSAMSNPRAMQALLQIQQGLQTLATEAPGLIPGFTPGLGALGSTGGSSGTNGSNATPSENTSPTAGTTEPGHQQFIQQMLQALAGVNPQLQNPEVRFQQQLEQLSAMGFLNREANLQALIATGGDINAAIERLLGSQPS
UniProt Q8NBZ7: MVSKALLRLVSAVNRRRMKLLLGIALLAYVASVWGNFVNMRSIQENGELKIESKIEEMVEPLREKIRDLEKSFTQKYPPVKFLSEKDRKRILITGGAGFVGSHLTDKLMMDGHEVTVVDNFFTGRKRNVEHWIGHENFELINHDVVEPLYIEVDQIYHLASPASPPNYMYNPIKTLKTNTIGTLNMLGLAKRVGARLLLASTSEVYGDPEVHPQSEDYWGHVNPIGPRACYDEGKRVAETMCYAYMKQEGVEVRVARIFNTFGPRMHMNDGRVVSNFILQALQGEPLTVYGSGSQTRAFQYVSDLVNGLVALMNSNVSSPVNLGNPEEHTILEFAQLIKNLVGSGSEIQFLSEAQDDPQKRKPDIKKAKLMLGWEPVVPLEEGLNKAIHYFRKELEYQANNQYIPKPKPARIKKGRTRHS
UniProt O75379: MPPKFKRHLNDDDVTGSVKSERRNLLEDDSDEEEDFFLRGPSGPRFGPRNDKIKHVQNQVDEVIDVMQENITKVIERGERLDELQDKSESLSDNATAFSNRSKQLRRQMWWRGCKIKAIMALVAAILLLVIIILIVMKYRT
UniProt Q9NWZ5: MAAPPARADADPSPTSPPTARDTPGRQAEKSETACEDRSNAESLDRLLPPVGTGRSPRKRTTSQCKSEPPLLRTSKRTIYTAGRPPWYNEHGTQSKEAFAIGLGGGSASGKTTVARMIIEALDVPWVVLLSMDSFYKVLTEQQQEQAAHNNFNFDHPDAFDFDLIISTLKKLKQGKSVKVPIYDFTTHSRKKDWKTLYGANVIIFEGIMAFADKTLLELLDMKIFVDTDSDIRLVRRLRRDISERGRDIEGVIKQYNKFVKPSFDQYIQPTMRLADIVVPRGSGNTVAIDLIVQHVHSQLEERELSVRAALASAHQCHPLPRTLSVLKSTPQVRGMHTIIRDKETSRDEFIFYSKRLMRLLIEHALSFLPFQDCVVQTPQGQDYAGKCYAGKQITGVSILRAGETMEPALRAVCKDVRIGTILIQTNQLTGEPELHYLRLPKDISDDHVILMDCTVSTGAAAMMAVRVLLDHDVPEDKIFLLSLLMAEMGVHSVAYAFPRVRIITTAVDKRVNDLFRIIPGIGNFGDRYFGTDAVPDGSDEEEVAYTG
UniProt P14927: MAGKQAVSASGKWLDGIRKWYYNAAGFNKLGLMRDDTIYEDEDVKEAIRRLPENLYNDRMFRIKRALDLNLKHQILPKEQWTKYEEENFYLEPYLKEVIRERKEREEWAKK
UniProt P26640: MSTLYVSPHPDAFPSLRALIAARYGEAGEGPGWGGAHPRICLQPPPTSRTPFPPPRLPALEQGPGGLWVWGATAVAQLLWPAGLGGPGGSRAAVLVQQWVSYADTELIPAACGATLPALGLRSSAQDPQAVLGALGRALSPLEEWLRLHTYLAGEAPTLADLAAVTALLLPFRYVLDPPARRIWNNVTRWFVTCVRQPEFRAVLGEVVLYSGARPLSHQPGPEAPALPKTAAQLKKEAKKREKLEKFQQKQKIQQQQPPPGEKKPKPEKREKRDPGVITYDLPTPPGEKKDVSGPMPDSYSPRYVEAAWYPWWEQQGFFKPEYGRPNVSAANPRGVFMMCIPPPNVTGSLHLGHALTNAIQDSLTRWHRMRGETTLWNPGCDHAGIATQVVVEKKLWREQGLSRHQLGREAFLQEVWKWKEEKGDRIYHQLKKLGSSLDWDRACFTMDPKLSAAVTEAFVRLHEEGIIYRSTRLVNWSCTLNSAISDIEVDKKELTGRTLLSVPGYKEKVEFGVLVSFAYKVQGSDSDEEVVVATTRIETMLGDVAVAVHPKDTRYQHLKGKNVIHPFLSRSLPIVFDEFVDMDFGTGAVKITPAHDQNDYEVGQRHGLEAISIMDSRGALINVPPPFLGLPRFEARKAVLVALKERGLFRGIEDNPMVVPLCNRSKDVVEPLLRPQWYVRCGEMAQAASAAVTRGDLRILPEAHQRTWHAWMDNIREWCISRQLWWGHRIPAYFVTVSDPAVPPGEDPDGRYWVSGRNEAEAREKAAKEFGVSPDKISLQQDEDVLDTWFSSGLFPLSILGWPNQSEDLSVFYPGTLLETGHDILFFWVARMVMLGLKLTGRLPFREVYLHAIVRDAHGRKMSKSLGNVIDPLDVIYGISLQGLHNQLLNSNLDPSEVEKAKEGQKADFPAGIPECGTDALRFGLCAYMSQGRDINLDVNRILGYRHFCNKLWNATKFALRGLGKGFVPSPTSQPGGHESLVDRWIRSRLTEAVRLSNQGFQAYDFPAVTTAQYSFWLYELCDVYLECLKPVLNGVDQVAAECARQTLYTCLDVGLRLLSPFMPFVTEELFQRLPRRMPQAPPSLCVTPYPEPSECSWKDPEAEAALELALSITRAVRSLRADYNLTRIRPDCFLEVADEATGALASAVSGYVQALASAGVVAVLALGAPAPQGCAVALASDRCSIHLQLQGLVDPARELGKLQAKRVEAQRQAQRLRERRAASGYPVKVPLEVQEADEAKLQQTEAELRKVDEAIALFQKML
UniProt Q9BZL1: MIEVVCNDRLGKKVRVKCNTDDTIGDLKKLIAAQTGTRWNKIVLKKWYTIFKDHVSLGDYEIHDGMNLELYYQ
UniProt Q96BW1: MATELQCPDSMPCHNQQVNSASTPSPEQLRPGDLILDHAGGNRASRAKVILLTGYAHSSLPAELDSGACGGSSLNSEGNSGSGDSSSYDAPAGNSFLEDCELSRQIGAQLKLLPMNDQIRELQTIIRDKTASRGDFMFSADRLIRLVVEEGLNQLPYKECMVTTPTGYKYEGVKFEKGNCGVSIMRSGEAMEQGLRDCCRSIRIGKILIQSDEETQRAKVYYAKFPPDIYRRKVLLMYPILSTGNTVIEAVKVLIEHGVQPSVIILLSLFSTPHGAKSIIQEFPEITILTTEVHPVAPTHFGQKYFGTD
UniProt O60701: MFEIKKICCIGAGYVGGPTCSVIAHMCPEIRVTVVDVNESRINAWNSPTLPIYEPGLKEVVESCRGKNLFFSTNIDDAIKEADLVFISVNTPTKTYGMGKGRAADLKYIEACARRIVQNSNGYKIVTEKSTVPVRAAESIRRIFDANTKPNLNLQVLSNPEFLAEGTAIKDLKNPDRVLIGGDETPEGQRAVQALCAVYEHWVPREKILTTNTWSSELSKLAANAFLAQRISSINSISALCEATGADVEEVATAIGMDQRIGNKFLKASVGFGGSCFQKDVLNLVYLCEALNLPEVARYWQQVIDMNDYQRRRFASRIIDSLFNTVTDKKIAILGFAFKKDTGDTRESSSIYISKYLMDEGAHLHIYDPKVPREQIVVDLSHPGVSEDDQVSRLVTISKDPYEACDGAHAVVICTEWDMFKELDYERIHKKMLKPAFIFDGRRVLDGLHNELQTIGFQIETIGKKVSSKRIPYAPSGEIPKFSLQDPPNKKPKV
UniProt P22695: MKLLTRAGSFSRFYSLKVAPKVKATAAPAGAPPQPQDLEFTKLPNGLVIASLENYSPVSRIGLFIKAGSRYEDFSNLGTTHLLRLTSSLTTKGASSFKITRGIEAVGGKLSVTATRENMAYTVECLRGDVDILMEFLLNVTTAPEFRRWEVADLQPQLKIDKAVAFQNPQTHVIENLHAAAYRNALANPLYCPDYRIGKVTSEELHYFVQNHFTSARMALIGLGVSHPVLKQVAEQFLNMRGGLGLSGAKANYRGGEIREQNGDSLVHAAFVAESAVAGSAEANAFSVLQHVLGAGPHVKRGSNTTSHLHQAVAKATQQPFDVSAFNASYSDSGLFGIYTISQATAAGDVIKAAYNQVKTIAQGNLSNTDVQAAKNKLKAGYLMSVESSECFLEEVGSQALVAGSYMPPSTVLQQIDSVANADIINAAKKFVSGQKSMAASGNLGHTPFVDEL
UniProt Q9H347: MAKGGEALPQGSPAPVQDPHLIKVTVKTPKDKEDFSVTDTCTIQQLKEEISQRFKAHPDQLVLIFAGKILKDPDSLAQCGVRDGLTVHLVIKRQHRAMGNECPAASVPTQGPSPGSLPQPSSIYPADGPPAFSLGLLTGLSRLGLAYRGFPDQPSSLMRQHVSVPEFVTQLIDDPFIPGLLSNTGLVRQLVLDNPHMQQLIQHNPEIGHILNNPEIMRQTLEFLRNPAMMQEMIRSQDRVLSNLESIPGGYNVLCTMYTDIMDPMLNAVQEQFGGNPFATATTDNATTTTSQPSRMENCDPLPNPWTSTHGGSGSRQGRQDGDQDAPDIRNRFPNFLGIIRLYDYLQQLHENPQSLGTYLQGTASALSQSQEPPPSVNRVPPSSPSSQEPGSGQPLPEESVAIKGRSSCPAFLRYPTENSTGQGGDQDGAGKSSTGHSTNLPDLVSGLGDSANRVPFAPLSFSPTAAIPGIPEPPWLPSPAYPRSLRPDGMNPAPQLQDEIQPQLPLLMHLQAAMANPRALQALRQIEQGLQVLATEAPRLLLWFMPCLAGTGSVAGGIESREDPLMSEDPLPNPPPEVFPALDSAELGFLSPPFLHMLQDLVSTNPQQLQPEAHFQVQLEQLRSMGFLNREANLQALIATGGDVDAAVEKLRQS
UniProt P15374: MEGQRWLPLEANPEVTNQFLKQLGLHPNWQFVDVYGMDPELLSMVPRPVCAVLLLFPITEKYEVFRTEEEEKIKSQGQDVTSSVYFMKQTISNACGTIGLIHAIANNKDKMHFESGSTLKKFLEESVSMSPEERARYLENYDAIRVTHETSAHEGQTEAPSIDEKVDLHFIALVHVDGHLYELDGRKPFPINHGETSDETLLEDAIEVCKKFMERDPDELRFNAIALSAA
UniProt Q8WVY7: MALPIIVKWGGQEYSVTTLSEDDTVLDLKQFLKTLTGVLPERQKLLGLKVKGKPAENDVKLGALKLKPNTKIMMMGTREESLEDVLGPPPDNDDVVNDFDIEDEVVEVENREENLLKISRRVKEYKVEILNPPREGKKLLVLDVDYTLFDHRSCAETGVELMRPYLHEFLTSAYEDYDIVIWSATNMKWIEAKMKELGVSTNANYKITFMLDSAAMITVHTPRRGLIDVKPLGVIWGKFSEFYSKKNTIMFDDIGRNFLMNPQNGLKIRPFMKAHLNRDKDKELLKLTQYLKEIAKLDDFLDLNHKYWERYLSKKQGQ

Row | Target | log2 fold change
1 | UMPS (UniProt P11172) | inactive: 0.022
2 | USP9X (UniProt Q93008) | inactive: -0.006
3 | UBXN7 (UniProt O94888) | inactive: 0.052
4 | USP6NL isoform 2 (UniProt Q92738) | inactive: -0.007
5 | UBQLN1 (UniProt Q9UMX0) | inactive: 0.071
6 | USP22 (UniProt Q9UPT9) | inactive: -0.018
7 | UGT8 (UniProt Q16880) | inactive: 0.017
8 | VAMP2 (UniProt P63027) | inactive: 0.049
9 | UXS1 isoform 2 (UniProt Q8NBZ7) | inactive: -0.018
10 | VCP (UniProt P55072) | inactive: 0.022
11 | USP19 isoform 6 (UniProt O94966) | inactive: 0.048
12 | UTP15 (UniProt Q8TED0) | inactive: -0.097
13 | UBL4A (UniProt P11441) | inactive: 0
14 | UBE3C (UniProt Q15386) | inactive: 0.01
15 | VAMP4 (UniProt O75379) | inactive: 0.054
16 | UQCC1 (UniProt Q9NVA1) | inactive: 0.065
17 | UCKL1 (UniProt Q9NWZ5) | inactive: -0.01
18 | UQCRB (UniProt P14927) | inactive: 0.012
19 | VARS (UniProt P26640) | inactive: -0.029
20 | UBL5 (UniProt Q9BZL1) | inactive: 0.019

An excerpt of these results, as a markdown table:

| Row | Target | log2 fold change |
| --- | --- | --- |
| 3 | UBXN7 (UniProt O94888) | inactive: 0.052 |
| 4 | USP6NL isoform 2 (UniProt Q92738) | inactive: -0.007 |

Later entries:

Row | Target | log2 fold change
21 | USP20 (UniProt Q9Y2K6) | inactive: -0.073
22 | USP30 (UniProt Q70CQ3) | inactive: -0.019
23 | UPRT (UniProt Q96BW1) | inactive: 0.015
24 | UPF3B (UniProt Q9BZI7) | inactive: -0.099
25 | VAMP7 (UniProt P51809) | inactive: 0.029
26 | UVRAG (UniProt Q9P2Y5) | inactive: 0.032
27 | UFSP2 (UniProt Q9NUQ7) | inactive: 0.029
28 | UQCRQ (UniProt O14949) | inactive: 0.032
29 | USP15 (UniProt Q9Y4E8) | inactive: -0.013
30 | UBQLN2 (UniProt Q9UHD9) | inactive: 0.114
31 | UGDH (UniProt O60701) | inactive: -0.036
32 | UQCRC2 (UniProt P22695) | inactive: 0.021
33 | UNC93B1 (UniProt Q9H1C4) | inactive: -0.011
34 | USP7 (UniProt Q93009) | inactive: -0.087
35 | UBQLN3 (UniProt Q9H347) | inactive: 0.028
36 | UCHL3 (UniProt P15374) | inactive: 0.001
37 | VBP1 (UniProt P61758) | inactive: 0.028
38 | UPF1 (UniProt Q92900) | inactive: 0.009
39 | UBLCP1 (UniProt Q8WVY7) | inactive: 0.036
40 | UXT isoform 2 (UniProt Q9UBK9) | inactive: 0.031

Reference: the supplement of paper PMC10849652
